These results are taken from PubChem BioAssay AID248 (DTP/NCI, 2004).

For the assay, the system named is L1210 leukemia ip in BDF1 mice, survival T/C. As to the kind of experiment: NCI In Vivo Anticancer Drug Screen. Data for tumor model L1210 Leukemia (intraperitoneal) in B6D2F1 (BDF1) mice. The settings on record: T/C endpoint: mean survival time, higher T/C = longer survival.
Where [1] appears, read: dose: 300.0 mg/kg/injection, schedule: Q01DX001 (ip), vehicle: other.
[2] abbreviates: dose: 100.0 mg/kg/injection, schedule: Q01DX001 (ip), vehicle: Klucel (hydroxypropylcellulose) (HPC).
[3] abbreviates: dose: 200.0 mg/kg/injection, schedule: Q01DX001 (ip), vehicle: Klucel (hydroxypropylcellulose) (HPC).
[4] abbreviates: dose: 400.0 mg/kg/injection, schedule: Q01DX001 (ip), vehicle: saline.

SMILES strings stand for the structures. The list does not hold the whole screen: it is rich in T/C values a quarter to a half above the control, in often repeated tests (any T/C) and in doses without a T/C. Further doses and runs are listed elsewhere. T/C is the treated group as % of the vehicle group. Some doses have a count of surviving animals in place of a T/C: the source files T/C as zero there, which appears to mark a toxic dose or a test without result, not a measured value. Some survivor counts are full or nearly so, which does not show that the dose was tolerated: the source hardly ever lists a survival T/C far under the control, and the zero likely stands for such cases as well. Survivors were counted at the toxicity check, usually on the fifth day, unless a day is given; later deaths do not show. Schedules are NCI's codes, read here as Q, the interval in days (D) or hours (H), X, the number of doses. Some doses were run more than once; the values are given in rising order. Some schedules carry Z or #; the key to these is not given. For survival time, the PubChem record calls one and a half times the control and up active, and a quarter to a half above the control has no call in these data; cut-offs in other NCI protocols can differ. Some T/C values carry the count of animals alive at the toxicity check (mostly the fifth day); where none is given, no animal had died by that day.

As to `CC(C)c1nc(C=O)c(C=O)n1Cc1ccccc1`, the survivor count (dose: 100.0 mg/kg/injection, schedule: Q04DX003 (ip), vehicle: carboxymethylcellulose (CMC)) is given as 6 of 6; the survivor count (dose: 200.0 mg/kg/injection, schedule: Q04DX002 (ip), vehicle: other) is listed as 0 of 3; the survivor count (dose: 200.0 mg/kg/injection, schedule: Q04DX003 (ip), vehicle: carboxymethylcellulose (CMC)) is listed as 6 of 6; the survivor count (dose: 400.0 mg/kg/injection, schedule: Q04DX002 (ip), vehicle: Klucel (hydroxypropylcellulose) (HPC)) is on record as 3 of 3; the survivor count (dose: 400.0 mg/kg/injection, schedule: Q04DX002 (ip), vehicle: other) is 0 of 3 and 0 of 6; the survivor count (dose: 400.0 mg/kg/injection, schedule: Q04DX003 (ip), vehicle: carboxymethylcellulose (CMC)) is 6 of 6.
Take `Cc1ccc(S(=O)(=O)C2=CC(=O)c3ccccc3C2=O)cc1`: the survivor count by setting is: (dose: 150.0 mg/kg/injection, schedule: Q01DX001 (ip), vehicle: other) 0 of 6; under setting [1], 0 of 6.
Turning to `CC(C)/C=N/NC(N)=S`, the survivor count was 1 of 6 (dose: 25.0 mg/kg/injection, schedule: Q01DX001 (ip), vehicle: Klucel (hydroxypropylcellulose) (HPC)); 0 of 6 (dose: 50.0 mg/kg/injection, schedule: Q01DX001 (ip), vehicle: Klucel (hydroxypropylcellulose) (HPC)); 1 of 6 under setting [2]; 1 of 6 under setting [3]; 0 of 6 (dose: 400.0 mg/kg/injection, schedule: Q01DX001 (ip), vehicle: Klucel (hydroxypropylcellulose) (HPC)).
`CNc1cccc([N+](=O)[O-])c1`: under setting [4], the survivor count is given as 2 of 4.
As for `CN(CC#N)CC#N`, the survivor count reads like this: (dose: 100.0 mg/kg/injection, schedule: Q01DX009 (ip), vehicle: saline) 0 of 6 and 2 of 6; (dose: 200.0 mg/kg/injection, schedule: Q01DX009 (ip), vehicle: saline) 0 of 6; (dose: 400.0 mg/kg/injection, schedule: Q01DX009 (ip), vehicle: saline) 0 of 6.
Regarding `O=C(O)C#Cc1ccccc1`, the survivor count was 1 of 6 (dose: 200.0 mg/kg/injection, schedule: Q01DX001 (ip), vehicle: saline) and 2 of 6 under setting [4].
In the case of `NC(N)=N/N=C\c1ccccc1/C=N/N=C(N)N`, the survivor count (dose: 60.0 mg/kg/injection, schedule: Q01DX Z (ip), vehicle: saline) is 1 of 6 and the survivor count (dose: 120.0 mg/kg/injection, schedule: Q01DX Z (ip), vehicle: saline) is on record as 0 of 6.
For `CN1C2CSCC1CC(O)C2` (configuration not stated), the survivor count runs as follows: (dose: 150.0 mg/kg/injection, schedule: Q01DX001 (ip), vehicle: saline) 1 of 6; under setting [1], 0 of 6; (dose: 300.0 mg/kg/injection, schedule: Q01DX001 (ip), vehicle: saline) 0 of 6.
For the compound `NCCCc1c(-c2ccccc2)nc(N)[nH]c1=O`, under setting [4], the survivor count is listed as 0 of 4.
For `O=C(c1ccc(Cl)cc1)C(C(c1ccc([N+](=O)[O-])cc1)N1CCCCC1)N1CCCCC1` (configuration not stated), the survivor count under setting [2] is on record as 6 of 6 and the survivor count under setting [3] is given as 5 of 6.
In the case of `CCOC(=O)/C=C/c1ccco1`, where the note is “dose: 400.0 mg/kg/injection, schedule: Q04DX003 (ip), vehicle: saline with Tween-80”, the survivor count is reported as 3 of 6.
On to `CCCC(=O)OCC1OC(n2cnc3c(=S)nc(N)[nH]c32)C(OC(=O)CCC)C1OC(=O)CCC` (configuration not stated), for which the T/C (dose: 3.5 mg/kg/injection, schedule: Q01DX Z (ip), vehicle: carboxymethylcellulose (CMC)) was 132 and 135 % of control; the T/C (dose: 5.0 mg/kg/injection, schedule: Q01DX Z (ip), vehicle: carboxymethylcellulose (CMC)) was 149 % of control; the T/C (dose: 5.3 mg/kg/injection, schedule: Q01DX Z (ip), vehicle: carboxymethylcellulose (CMC)) is 138 % of control; the T/C (dose: 5.4 mg/kg/injection, schedule: Q01DX Z (ip), vehicle: carboxymethylcellulose (CMC)) is 130 % of control; the T/C (dose: 8.0 mg/kg/injection, schedule: Q01DX Z (ip), vehicle: carboxymethylcellulose (CMC)) is 149 % of control; the T/C (dose: 9.0 mg/kg/injection, schedule: Q01DX Z (ip), vehicle: carboxymethylcellulose (CMC)) was 138 % of control. Further, the T/C was 132, 144, 150, 162 % of control (dose: 12.0 mg/kg/injection, schedule: Q01DX Z (ip), vehicle: carboxymethylcellulose (CMC)); 141 % of control (dose: 15.0 mg/kg/injection, schedule: Q01DX Z (ip), vehicle: carboxymethylcellulose (CMC)); 125 % of control (dose: 16.2 mg/kg/injection, schedule: Q01DX Z (oral), vehicle: carboxymethylcellulose (CMC)); 148 % of control [5 of 6 alive] (dose: 17.0 mg/kg/injection, schedule: Q01DX Z (ip), vehicle: carboxymethylcellulose (CMC)); 138 and 148 % of control (dose: 25.0 mg/kg/injection, schedule: Q01DX Z (ip), vehicle: carboxymethylcellulose (CMC)); 144 % of control (dose: 42.0 mg/kg/injection, schedule: Q01DX Z (ip), vehicle: carboxymethylcellulose (CMC)). The T/C (dose: 45.0 mg/kg/injection, schedule: Q01DX Z (oral), vehicle: carboxymethylcellulose (CMC)) is 146 % of control and the T/C (dose: 75.0 mg/kg/injection, schedule: Q01DX Z (oral), vehicle: carboxymethylcellulose (CMC)) was 130 % of control.
As to `CC(C)(CO)N=Cc1ccccc1O.CC(C)(CO)N=Cc1ccccc1O.[Ni]`, under setting [1], the survivor count is 1 of 6.
On to `O=C1OC(c2cccc(Cl)c2)=N/C1=C\c1ccccc1O`, for which, under “dose: 200.0 mg/kg/injection, schedule: Q01DX009 (ip), vehicle: Klucel (hydroxypropylcellulose) (HPC)”, the survivor count is on record as 6 of 6.
On to `COc1cc(C=Nc2cc(Cl)c(O)c(Cl)c2)ccc1N(CCCl)CCCl`, for which the T/C is 137 % of control (dose: 3.2 mg/kg/injection, schedule: Q01DX009 (ip), vehicle: carboxymethylcellulose (CMC)); 146 % of control (dose: 4.8 mg/kg/injection, schedule: Q01DX009 (ip), vehicle: carboxymethylcellulose (CMC)); 136 % of control (dose: 7.3 mg/kg/injection, schedule: Q01DX009 (ip), vehicle: carboxymethylcellulose (CMC)); 130 % of control (dose: 8.0 mg/kg/injection, schedule: Q01DX009 (ip), vehicle: carboxymethylcellulose (CMC)); 126 % of control (dose: 25.0 mg/kg/injection, schedule: Q01DX001 (ip), vehicle: carboxymethylcellulose (CMC)); 127 % of control (dose: 37.5 mg/kg/injection, schedule: Q01DX001 (ip), vehicle: carboxymethylcellulose (CMC), evaluated on day 30). For the same compound, the T/C (dose: 37.5 mg/kg/injection, schedule: Q01DX001 (ip), vehicle: carboxymethylcellulose (CMC), run until all animals had died) is 142 % of control. Moreover, the survivor count is, setting by setting: (dose: 16.6 mg/kg/injection, schedule: Q01DX009 (ip), vehicle: carboxymethylcellulose (CMC)) 0 of 6; (dose: 25.0 mg/kg/injection, schedule: Q01DX009 (ip), vehicle: carboxymethylcellulose (CMC)) 0 of 6; (dose: 37.5 mg/kg/injection, schedule: Q01DX009 (ip), vehicle: carboxymethylcellulose (CMC)) 0 of 6; (dose: 100.0 mg/kg/injection, schedule: Q01DX001 (ip), vehicle: carboxymethylcellulose (CMC)) 0 of 4; (dose: 200.0 mg/kg/injection, schedule: Q01DX001 (ip), vehicle: carboxymethylcellulose (CMC)) 0 of 4; (dose: 400.0 mg/kg/injection, schedule: Q01DX001 (ip), vehicle: carboxymethylcellulose (CMC)) 0 of 4.
Take `CC(C)=NOS(=O)(=O)c1c(C)cc(C)cc1C`: the survivor count (dose: 200.0 mg/kg/injection, schedule: Q04DX002 (ip), vehicle: Klucel (hydroxypropylcellulose) (HPC)) is recorded as 3 of 3.
With `CC1(C)NC(=O)C2CC21C` (configuration not stated), the survivor count is 0 of 3 (dose: 200.0 mg/kg/injection, schedule: Q04DX002 (ip), vehicle: saline) and 1 of 3 (dose: 400.0 mg/kg/injection, schedule: Q04DX002 (ip), vehicle: saline).
Take `CCCCCCCCCCCCC/C=N\N=C(N)N`: the survivor count by setting is: (dose: 240.0 mg/kg/injection, schedule: Q01DX Z (ip), vehicle: saline) 1 of 6; (dose: 480.0 mg/kg/injection, schedule: Q01DX Z (ip), vehicle: saline) 0 of 6.
